# Data published in PubChem BioAssay AID2685 (National Center for Advancing Translational Sciences (NCATS), 2010).
# Among all 320,000 compounds or so, about 2,100 (0.66%) were called active. Calls come from the whole dose curve; as a rule, active = well fitted inhibition curve with a large enough effect in the signal ratio, with a control signal flat (not every such curve was filed as active); inconclusive = small, poorly fitted or top-dose-only effect, or effect the other way, or a change in a side signal; inactive = flat fitted curve, though single readings scatter; the % refers to the signal ratio. Inconclusive means that the source gave no clear call. A potency beside an inconclusive call is a rough fit, not a confirmed value.
# Assay: qHTS Assay for Lipid Storage Modulators in Drosophila S3 Cells
# Conditions: BODIPY lipid droplet fluorescence, 18-24 h, cells fed with added oleic acid; lipid storage change, negative = inhibition: at 46.1 µM (top of the series) unless noted
# Procedure, shortened: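 Drosophila S3 cells loaded with oleic acid (400 uM, as added) and compounds at several concentrations; lipid droplets imaged by 488-nm laser-scanning cytometry, 500–530 nm intensity and object ratio to cell channel. Percent activity normalized to 20 uM Triacsin C.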
# % is set by controls: 0 for no effect and ±100 for the full control effect; potency is the fitted concentration of half-maximal effect.
Compound,Potency,"lipid storage change, negative = inhibition"
COc1ccc(CCNC(=O)CSCc2ccc(Br)cc2)cc1OC,"inconclusive: 29.1 µM [falling, single point]",–
Cc1nc(C)c(C(=O)N2CCCC(C(=O)c3ccc4ccccc4c3)C2)s1 (stereo not given),"inconclusive: 29.1 µM [cytotoxic, single point]",–
Cc1cc(C(=O)Nc2ccccc2C(=O)O)ccc1NC(=O)COc1ccccc1Cl,"inconclusive: 13 µM [activator, partial curve]",–
CCN(CC)CCCNC(=O)c1ccc(S(=O)(=O)Nc2ccc(C)c(C)c2)cc1,"inconclusive: 0.0058 µM [falling, full curve, poor fit]",–
Cc1ccccc1NC(=O)COc1ccc(Br)cc1CNCCCO,–,inconclusive: 0.196%
COc1ccc(C)cc1NC(=O)COC(=O)CCC(=O)c1cccs1,–,inconclusive: 8.55%
CCOc1ccc2nc(N/C(N)=N/C(=S)Nc3ccc(OC)cc3)nc(C)c2c1,–,inconclusive: 74.8%
O=c1cc(-c2ccc(O)c(-c3c(O)cc(O)c4c(=O)cc(-c5ccc(O)cc5)oc34)c2)oc2cc(O)cc(O)c12,–,inconclusive: 3.75%
Cc1ccccc1C(=O)NCCCCc1ccccc1,"inconclusive: 11.6 µM [activator, partial curve, poor fit]",–
Cc1ccc(N2C(=O)c3ccccc3C2C(=O)c2ccc(O)cc2O)cc1 (stereo not given),–,inconclusive: 1.92%
CCCCc1ccc(N=N/C(C(=O)Nc2ccccc2OC)=C(/C)O)cc1,–,inconclusive: 30.5%
CC(C)C[C@H]1CN=C(N(C)C)N1CCCCc1ccccc1,–,inconclusive: 15.3%
Cc1ccc2nc3c(cc(C#N)c(=O)n3CC3CCCO3)c(=O)n2c1 (stereo not given),"inconclusive: 6.51 µM [activator, single point]",–
COc1ccc(-c2nnn(CC(=O)N(CC(=O)NC3CCCC3)Cc3ccco3)n2)cc1OC,"inconclusive: 29.1 µM [falling, single point]",–
CCOc1ccccc1CN1C(=O)NC2(CCCCCC2)C1=O,"inconclusive: 29.1 µM [falling, single point]",–
O=C(CSC1=NCCS1)NCc1ccco1,–,inconclusive: 7.11%
Cc1cc(C)n(CCc2nc(-c3ccc(-c4ccccc4)cc3)cs2)n1,–,inconclusive: 0.3%
CCOCCc1nnc(NC(=O)Cc2ccc(Br)cc2)s1,"inconclusive: 2.06 µM [rising, single point]",–
Cn1c(SCc2ccc([N+](=O)[O-])cc2)nc2c(c1=O)SCC2,–,inconclusive: -2.76%
O=C(CCN1CCOCC1)Nc1ccc2c(c1)N(C(=O)CN1CCOCC1)c1ccccc1CC2,–,inconclusive: -36.7%
COc1ccc(-c2n[nH]c(=S)o2)c(OC)c1,–,inconclusive: 114%
COc1ccccc1C(=O)NC(CCSC)C(=O)NCC(c1ccccc1OC)N1CCCC1 (stereo not given),"inconclusive: 0.0046 µM [falling, full curve, poor fit]",–
CCC(C)(C)n1nnnc1C(c1ccc(OC)cc1)N1CCN(C(=O)c2ccco2)CC1 (stereo not given),–,inconclusive: 18.8%

Compound,Potency,"lipid storage change, negative = inhibition"
COc1ccc(CNC(=O)c2cc3cccc(O)c3oc2=N)cc1,"inconclusive: 4.61 µM [falling, full curve, poor fit]",–
COc1ccc(Cl)cc1NC(=O)CCc1nnc2ccc(N3CCC4(CC3)OCCO4)nn12,"inconclusive: 29.1 µM [falling, single point]",–
Cc1cccc2cc(CN(Cc3ccco3)S(=O)(=O)c3ccc4c(c3)OCCO4)c(=O)[nH]c12,–,inconclusive: -36.7%
CC1CC(C)CN(CCCNC(=O)CC2Oc3ccccc3NC2=O)C1 (stereo not given),"inconclusive: 0.146 µM [falling, full curve, poor fit]",–
CS(=O)(=O)c1cccc(C(=O)Nc2nnc(C3=COCCO3)o2)c1,"inconclusive: 29.1 µM [activator, single point]",–
CON(C)S(=O)(=O)c1cccc(C(=O)Nc2ccc(S(=O)(=O)NC3=NCCCCC3)cc2)c1,–,inconclusive
Nc1ccc(C(=O)N/N=C/c2cn(Cc3ccccc3F)c3ccccc23)cc1,"inconclusive: 29.1 µM [cytotoxic, single point]",–
COc1ccc(-c2cn3c(C)c(C(=O)Nc4cc(NC(C)=O)ccc4OC)sc3n2)cc1,–,inconclusive: 9.51%
COc1ccccc1-c1nc(S(=O)(=O)c2ccc(Cl)cc2)c(N(C)C)o1,–,inconclusive: 17.2%
Cn1c(=O)c2c(nc(NCc3ccco3)n2Cc2ccc(Cl)cc2Cl)n(C)c1=O,"inconclusive: 0.082 µM [activator, full curve, poor fit]",–
O=C(CSc1ccccn1)Nc1ccc2[nH]c(=O)[nH]c2c1,–,inconclusive: 8.17%
CN=C1SC(C(=O)O)CC(=O)N1C (stereo not given),–,inconclusive: -33%
O=C(Nc1ccccc1N1CCCC1)c1ccc(F)c(S(=O)(=O)N2CCOCC2)c1,"inconclusive: 2.91 µM [falling, full curve]",–
O=S(=O)(c1ccc2c(c1)CCC2)N1CCNCC1,"inconclusive: 0.058 µM [activator, full curve, poor fit]",–
CC1CC(N(C(=O)C2CC2)c2ccccc2)c2ccccc2N1C(=O)C1CC1 (stereo not given),–,inconclusive: 19.6%
CCn1ncc(/C=N\NC(=O)c2csc3ccccc23)c1C,–,inconclusive: 5.93%
CN(CC(=O)N1CCc2ccccc2C1)c1ccccc1,–,inconclusive: 10.9%
CC(C)N(C(=O)CSc1nnc(CSc2ncccn2)n1C)C(C)C,–,inconclusive: -8.3%
CCOC(=O)C1CCN(C(=O)c2cc3cc4ccc(OC)cc4nc3o2)CC1,"inconclusive: 2.06 µM [activator, partial curve]",–
Cc1cc(OC(=O)c2ccccc2C(F)(F)F)c([N+](=O)[O-])c(=O)[nH]1,–,inconclusive: 45.4%
COc1ccc(S(=O)(=O)N2CCN(C(=O)c3ccc(NC(C)=O)cc3)CC2)cc1,"inconclusive: 23.1 µM [activator, single point]",–
COc1ccc(CNC(=O)CCC(=O)N2CCN(S(=O)(=O)c3cc([N+](=O)[O-])ccc3C)CC2)cc1,–,inconclusive

# Random excerpt: two entries already listed
Compound,Potency,"lipid storage change, negative = inhibition"
CC(C)N(C(=O)CSc1nnc(CSc2ncccn2)n1C)C(C)C,–,inconclusive: -8.3%
COc1ccccc1-c1nc(S(=O)(=O)c2ccc(Cl)cc2)c(N(C)C)o1,–,inconclusive: 17.2%
